Some of these results come from one statement about several compounds together.
Tested on: Ctenocephalides felis
Test: activity against cat flea in an "artificial dog" apparatus
Conditions: 100 ppm in defibrinated cattle blood, membrane feeding

SMILES	killing rate of Ctenocephalides felis
CCN/C(=N\Nc1c(Cl)cc(C(F)(F)F)cc1Cl)C1(C)CC1(Cl)Cl (stereo not drawn) [1-2, N-Ethyl-2,2-dichloro-1-methylcyclopropane-carboxamide-2-(2,6-dichloro-α,α,α-trifluoro-p-tolyl)hydrazone]	over 60%
CCN/C(=N\Nc1c(Cl)cc(C(F)(F)F)cc1Cl)C(C)(C)C [I-1, N-ethyl-2,2-dimethylpropionamide-2-(2,6-dichloro-α,α,α-trifluoro-p-tolyl)-hydrazone]	over 60%

Source: patent US20070259962A1, “Use of N-Arylhydrazine Derivatives for Combating Pests in and on Animals” (priority 2003, published 2007)
